Results on two substances are retold here after publication PMC5633884.

By UniProt entry, the sequences of proteins in these tests, tags left out.
UniProt Q8IX03: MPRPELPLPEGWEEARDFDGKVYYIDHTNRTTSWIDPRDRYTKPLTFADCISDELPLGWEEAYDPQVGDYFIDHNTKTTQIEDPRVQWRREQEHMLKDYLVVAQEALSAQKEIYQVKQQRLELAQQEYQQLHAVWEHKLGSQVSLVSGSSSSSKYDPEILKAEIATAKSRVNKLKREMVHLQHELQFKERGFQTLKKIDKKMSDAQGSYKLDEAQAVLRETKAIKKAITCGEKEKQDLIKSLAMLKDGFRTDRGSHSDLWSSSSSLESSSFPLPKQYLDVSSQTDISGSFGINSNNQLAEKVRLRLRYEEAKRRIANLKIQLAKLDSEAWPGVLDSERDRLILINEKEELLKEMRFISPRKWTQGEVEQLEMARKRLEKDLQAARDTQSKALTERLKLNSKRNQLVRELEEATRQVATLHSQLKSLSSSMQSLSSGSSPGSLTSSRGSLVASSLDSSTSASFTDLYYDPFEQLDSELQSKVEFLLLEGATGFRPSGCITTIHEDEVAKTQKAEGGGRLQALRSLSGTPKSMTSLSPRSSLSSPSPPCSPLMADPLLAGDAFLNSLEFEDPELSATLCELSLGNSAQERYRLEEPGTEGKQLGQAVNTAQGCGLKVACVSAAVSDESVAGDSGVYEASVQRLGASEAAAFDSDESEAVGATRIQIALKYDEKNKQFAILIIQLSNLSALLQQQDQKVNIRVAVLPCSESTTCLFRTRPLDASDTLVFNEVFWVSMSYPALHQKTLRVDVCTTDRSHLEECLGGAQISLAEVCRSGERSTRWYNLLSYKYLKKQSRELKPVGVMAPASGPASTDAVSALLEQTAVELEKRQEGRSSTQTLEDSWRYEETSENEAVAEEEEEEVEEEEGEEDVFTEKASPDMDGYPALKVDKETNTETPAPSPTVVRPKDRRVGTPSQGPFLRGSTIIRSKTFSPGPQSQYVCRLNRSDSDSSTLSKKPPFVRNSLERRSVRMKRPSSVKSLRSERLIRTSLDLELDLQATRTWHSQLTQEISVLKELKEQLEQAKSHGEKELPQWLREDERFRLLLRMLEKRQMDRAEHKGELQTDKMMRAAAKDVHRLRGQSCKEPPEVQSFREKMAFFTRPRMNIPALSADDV
UniProt P35240: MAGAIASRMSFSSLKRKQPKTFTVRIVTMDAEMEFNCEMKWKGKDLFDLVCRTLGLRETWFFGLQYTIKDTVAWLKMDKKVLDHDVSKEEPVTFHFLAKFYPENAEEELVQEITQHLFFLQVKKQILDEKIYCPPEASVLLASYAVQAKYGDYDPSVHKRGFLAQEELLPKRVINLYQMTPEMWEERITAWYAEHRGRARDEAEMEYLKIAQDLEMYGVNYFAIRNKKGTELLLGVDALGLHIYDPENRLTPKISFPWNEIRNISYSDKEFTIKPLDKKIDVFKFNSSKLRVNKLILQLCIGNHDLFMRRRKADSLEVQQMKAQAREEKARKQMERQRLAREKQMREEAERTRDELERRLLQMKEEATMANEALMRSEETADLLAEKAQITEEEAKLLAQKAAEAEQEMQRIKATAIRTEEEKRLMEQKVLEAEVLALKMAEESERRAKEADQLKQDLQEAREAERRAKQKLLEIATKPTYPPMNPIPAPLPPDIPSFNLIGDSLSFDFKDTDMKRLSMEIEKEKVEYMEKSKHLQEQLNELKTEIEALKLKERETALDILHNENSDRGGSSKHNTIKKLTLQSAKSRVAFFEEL
UniProt Q8TEW0: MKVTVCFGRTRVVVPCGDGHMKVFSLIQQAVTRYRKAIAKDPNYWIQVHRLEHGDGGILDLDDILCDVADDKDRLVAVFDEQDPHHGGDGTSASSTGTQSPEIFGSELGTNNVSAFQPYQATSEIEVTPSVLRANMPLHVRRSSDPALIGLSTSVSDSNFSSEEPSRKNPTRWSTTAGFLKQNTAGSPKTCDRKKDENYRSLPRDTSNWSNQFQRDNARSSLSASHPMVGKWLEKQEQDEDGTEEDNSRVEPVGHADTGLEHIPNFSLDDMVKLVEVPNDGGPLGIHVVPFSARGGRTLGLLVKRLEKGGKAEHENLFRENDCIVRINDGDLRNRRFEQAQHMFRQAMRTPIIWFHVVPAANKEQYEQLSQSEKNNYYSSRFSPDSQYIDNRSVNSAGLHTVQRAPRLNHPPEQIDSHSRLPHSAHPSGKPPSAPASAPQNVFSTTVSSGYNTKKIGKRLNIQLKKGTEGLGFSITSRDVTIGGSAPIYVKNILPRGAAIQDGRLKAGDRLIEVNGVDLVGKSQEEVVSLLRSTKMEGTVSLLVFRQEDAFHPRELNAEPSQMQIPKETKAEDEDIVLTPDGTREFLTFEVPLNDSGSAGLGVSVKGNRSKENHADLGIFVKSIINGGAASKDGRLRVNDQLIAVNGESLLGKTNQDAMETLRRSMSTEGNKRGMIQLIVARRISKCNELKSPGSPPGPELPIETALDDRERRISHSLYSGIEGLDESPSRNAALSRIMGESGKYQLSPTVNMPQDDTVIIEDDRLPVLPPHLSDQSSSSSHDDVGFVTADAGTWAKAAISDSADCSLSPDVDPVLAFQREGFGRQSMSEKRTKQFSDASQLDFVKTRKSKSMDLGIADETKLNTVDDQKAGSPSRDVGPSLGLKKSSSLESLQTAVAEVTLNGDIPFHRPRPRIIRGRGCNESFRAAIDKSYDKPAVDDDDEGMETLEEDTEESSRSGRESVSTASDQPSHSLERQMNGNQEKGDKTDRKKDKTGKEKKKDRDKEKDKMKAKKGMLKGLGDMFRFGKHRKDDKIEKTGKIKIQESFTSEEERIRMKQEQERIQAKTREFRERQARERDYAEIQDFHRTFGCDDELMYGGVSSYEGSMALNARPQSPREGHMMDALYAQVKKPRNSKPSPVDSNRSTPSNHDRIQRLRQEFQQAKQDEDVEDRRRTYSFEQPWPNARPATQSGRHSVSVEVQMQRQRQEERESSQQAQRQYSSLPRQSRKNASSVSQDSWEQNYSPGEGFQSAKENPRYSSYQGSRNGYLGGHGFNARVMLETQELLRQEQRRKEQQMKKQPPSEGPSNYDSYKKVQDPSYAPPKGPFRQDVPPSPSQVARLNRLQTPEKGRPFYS

The target of test [1] is KIBRA (human (endogenous in PNT1B, PC3 and DU145)) (UniProt Q8IX03). The experiment in a line: co-IP; membranous and cytoplasmic protein extracts taken apart; PC3-con, PC3-shPar3 (stable Par3 knockdown) and PC3-Par3OE (Par3 overexpression) cells; western blot.
Test [2] has the same target. The experiment in a line: co-IP; endogenous proteins; PNT1B, PC3 and DU145 cells lysed with RIPA; 100 ug total protein with 5 ug specific antibody and 40 ul protein G-sepharose beads on ice overnight; washed three times with chilled PBS; western blot. (Immunoblotting shows a protein as a band on a membrane.)

Results are given in words; binding and its absence hold for the method and conditions named. Binding seen in cells or lysates may run through a third protein. Some binding calls cover weakened binding; strength is not graded here.

Take Merlin (from UniProt P35240 1-595): the binding result in test [1] and in test [2] was “binds” each time.

In the case of Par3 (from UniProt Q8TEW0 1-1356), in test [2], the binding entry is “binds”.
